# The supplement of paper PMC5949888
# Most values lie at the floor of the assay. Slopes are relative: functional sequences can read slightly below zero.
# Tested on: Saccharomyces cerevisiae PS128 hsf1 delta, HSF1(1-493) fusion
# Assay: growth estimate (transactivation domain function in HSF1 fusion, heat-shock survival) (a.u. (slope of normalised read count over time)); higher = stronger growth at 37°C, i.e. more transactivation activity
# Settings: library: random library
row,Substance,growth estimate
1,RFLGIMAIHHATCGPGRGSS,< -0.25
2,KRAYFI,0.366
3,GHNVTGIIRVCASDCE,< -0.25
4,LLLVAVADWGGGPRQPVIGI,< -0.25
5,PLAITLPVLLANASTLSLTS,< -0.25
6,HRLHIRLSAELAYNVGTRVP,< -0.25
7,LVSTP,< -0.25
8,KSGRLK,< -0.25
9,WIINNIKTAPRRAGGHFLRH,< -0.25
10,GRRSKRVPQTRGLRKAAFGE,< -0.25
11,LYPGYGHVIR,< -0.25
12,AKMITDI,< -0.25
13,TESPGYSESLKLLEGS,< -0.25
14,WCPARMVAGYCGQPDTISGR,< -0.25
15,RVMRVRRLSFGRRAMSVRQS,< -0.25
16,SFFVPPRLSKVRFSTCGRVQ,< -0.25
17,MLLGGCPPQRLTPHVVTPID,< -0.25
18,SMVYLMRKCVDTIGTKHGSQ,< -0.25
19,TVGLAC,< -0.25
20,VYRCS,-0.187
21,TLNGLSLSDDIYFTSI,0.408
22,FLRSDGRIRFLSRFGNGAGA,< -0.25
23,GINDLLADRARAVMYRLCIC,< -0.25
24,TITAWRAWILLPTVVRVNDA,< -0.25

row,Substance,growth estimate
1,HVVFYEPKTPGRALLFKGCS,< -0.25
2,NVTYGSARRGLRHGWWKPQG,< -0.25
3,TIPSTI,< -0.25
4,SRSEPGSWALLNLNVGRDCP,< -0.25
5,SLEGNAASSTVSSGSRGSTW,< -0.25
6,CKVSCNMVTV,< -0.25
7,LVWSPTRGFSKVKEWFC,< -0.25
8,GLRDWYHGSGVWERMVKDAL,< -0.25
9,GGGYTRGQLFER,< -0.25
10,YISASIAEANVVVNWRRATR,< -0.25
11,CPNIKLV,< -0.25
12,CMSNFLMIST,< -0.25
13,DKW,< -0.25
14,PKIMGDGVGRQVSLGLGGKS,< -0.25
15,SLDNRLSPVNL,< -0.25
16,DARQRGSAHLEWILNDARAL,< -0.25
17,QCKGDAYRGVRATKMNVHSY,< -0.25
18,KRRHLHPMLSHLFRKAA,< -0.25
19,TLAPPPGSKLEFLPQTLDVP,< -0.25
20,ILCLSIPRPKGGLEGAYAIV,< -0.25
21,RYLVSALRMGIIPNTHISRV,< -0.25
22,HRGCTRAWTPQSLKRSRLLL,< -0.25
23,SHKRAEEV,< -0.25
24,LEHYRGGWNSSV,< -0.25

row,Substance,growth estimate
1,RLANLNLGALTSLRPGLSLA,< -0.25
2,LERPSY,< -0.25
3,PVTSQ,< -0.25
4,PPLQTHNAKCRKCKDSMRWG,< -0.25
5,ASVLGWLCRTGSVCT,< -0.25
6,PAFTSLCIYCISC,< -0.25
7,CSRLAEKSSQPI,< -0.25
8,RANDAMIPVLGGTAERGNGP,< -0.25
9,STR,-0.227
10,LSPKIPEHKSRRLTSIDGLI,< -0.25
11,TPARTGLQVASSLVQR,< -0.25
12,SSLTIASRTESERA,< -0.25
13,PARFVVDTLH,< -0.25
14,QDPPHPEYF,< -0.25
15,ALP,< -0.25
16,ITAKKESQNSTLTAGNSGIL,< -0.25
17,SEKDEGLCTSWCSTPCNALD,< -0.25
18,PGSHRSPRDLSPVMGCVRPV,< -0.25
19,PAKTELAQRL,< -0.25
20,LVDYLLDMAFKRHSNLWGAS,< -0.25
21,SRLYPGFRREGPRPSRERTY,< -0.25
22,IKRVIGAG,< -0.25
23,TGRRGRNPCVQGKYPRST,< -0.25
24,VASRDGLQGRVETSCRSFSL,< -0.25

row,Substance,growth estimate
1,CAAR,< -0.25
2,SCSKRGVGLREGVSRQSQQA,< -0.25
3,FAKLQGWHRVCLRVVARGFA,< -0.25
4,FMRVSFAKLASDLGRGDIEW,-0.246
5,QSWVY,< -0.25
6,VQRYSRGGIHHLCPFYFKVM,< -0.25
7,FNNEFIAF,-0.0684
8,GLGRSRSQTIIPPVKMGAVT,< -0.25
9,CLNSRSHYCTPLRIRRHFIR,< -0.25
10,PRPRCKCFIRAAGLGNLRGA,< -0.25
11,LHSHTSSTSLEL,< -0.25
12,IVSLFRIATLCI,< -0.25
13,LDLQPP,< -0.25
14,RKFSSCVKCPYFLACTQTFC,< -0.25
15,HRQTDGRTGATGFFHSSAPR,< -0.25
16,CAERGT,< -0.25
17,AIEPLAPAAVASNQAIACHT,< -0.25
18,KRSDSMFHRHAIFHPKRTRV,< -0.25
19,DATCRGGNSTHAPRPATAVE,< -0.25
20,AKGGEPL,< -0.25
21,SRLRRKAGVAVILTKPSLHA,< -0.25
22,LAYVWKSEPLPGGDRVRRSH,< -0.25
23,SANLIFEEGLSDWTGLHRME,< -0.25
24,YSSIGRT,< -0.25

row,Substance,growth estimate
1,TTVNTEGAELGVDQHFPMYQ,-0.0849
2,FVYRYKSGKPPREDPVVGTD,< -0.25
3,LNLLWCVDGVAITVATRFDH,< -0.25
4,SVACALRETTYPSLTMVDRW,< -0.25
5,LRFSFFTVHVRSRLIICVAR,< -0.25
6,VYSPGL,< -0.25
7,PLEYGDLTLHA,< -0.25
8,LKKTIGAEVYSGTPSTSHP,< -0.25
9,VWDIETLRVNSEIVRDSRRR,< -0.25
10,SGGEKLLIGRSTRKLDVKQL,< -0.25
11,KTCNGLSVVVCPVLAVRCSQ,< -0.25
12,GMLRINEVHAHGSRGSSVPD,< -0.25
13,SRSSEGRPGFERQNDYSTSS,< -0.25
14,IGSQDPPNHRSWATCYRGFM,< -0.25
15,LQRSSMGRNIGYR,< -0.25
16,VETIAPVKFRNHHAATAAPL,< -0.25
17,KTGPPEYVY,< -0.25
18,AIKVSRYPWI,< -0.25
19,LAHIRGLRGGALLSFNWRML,< -0.25
20,NGHYDEPVKVRKFSSGLENQ,< -0.25
21,VPLS,< -0.25
22,NRH,< -0.25
23,TFGWYP,< -0.25
24,FRKGY,< -0.25

# Pulled one by one from the entries so far, 6 records:
row,Substance,growth estimate
8,RANDAMIPVLGGTAERGNGP,< -0.25
3,GHNVTGIIRVCASDCE,< -0.25
18,KRSDSMFHRHAIFHPKRTRV,< -0.25
15,ALP,< -0.25
17,MLLGGCPPQRLTPHVVTPID,< -0.25
15,SLDNRLSPVNL,< -0.25

# (further entries)

row,Substance,growth estimate
1,DQHCHLAAEGEA,< -0.25
2,EYCSPWKAKGSLM,< -0.25
3,MGTCHPASLALRFCVYSASM,< -0.25
4,ISSEEANSKILNHVLDTAVG,< -0.25
5,SGLEKEQKLSQR,< -0.25
6,DGMANVVPAVNLAS,< -0.25
7,RGIHCPVTAHVSRGPAECSV,< -0.25
8,AVVLAW,< -0.25
9,QFPPGSYVQIRGAMPPLQKV,< -0.25
10,GVTG,< -0.25
11,YSTATPRANGGVSSWQPVLE,< -0.25
12,LRIQVLSED,< -0.25
13,NLSCAITVT,< -0.25
14,SRITAIRLGNCQATRTSL,< -0.25
15,SVYQRCSRSYLSISLWTGPR,< -0.25
16,LGSTKADGSYTEVCVTSRWS,< -0.25
17,LTLVIQSKKLRTDVGLRY,< -0.25
18,RIGQMPTSAHAPSD,< -0.25
19,GTVW,< -0.25
20,SENEIGGRVLPTGACGGDHP,< -0.25
21,PWLLARCSAIAPPQGVYLLF,< -0.25
22,RLPLRWSPSQGSRISYCGAY,< -0.25

# Two entries from above, bar-delimited:
row | Substance | growth estimate
4 | ISSEEANSKILNHVLDTAVG | < -0.25
5 | SGLEKEQKLSQR | < -0.25
